# Results reported in the supplement of paper PMC10849652.
# The chains behind the UniProt entries cited, without tags or fusion partners. Where a name states a change or a piece, a line headed by the entry shows the natural chain unless it says otherwise.
# UniProt Q9UK10: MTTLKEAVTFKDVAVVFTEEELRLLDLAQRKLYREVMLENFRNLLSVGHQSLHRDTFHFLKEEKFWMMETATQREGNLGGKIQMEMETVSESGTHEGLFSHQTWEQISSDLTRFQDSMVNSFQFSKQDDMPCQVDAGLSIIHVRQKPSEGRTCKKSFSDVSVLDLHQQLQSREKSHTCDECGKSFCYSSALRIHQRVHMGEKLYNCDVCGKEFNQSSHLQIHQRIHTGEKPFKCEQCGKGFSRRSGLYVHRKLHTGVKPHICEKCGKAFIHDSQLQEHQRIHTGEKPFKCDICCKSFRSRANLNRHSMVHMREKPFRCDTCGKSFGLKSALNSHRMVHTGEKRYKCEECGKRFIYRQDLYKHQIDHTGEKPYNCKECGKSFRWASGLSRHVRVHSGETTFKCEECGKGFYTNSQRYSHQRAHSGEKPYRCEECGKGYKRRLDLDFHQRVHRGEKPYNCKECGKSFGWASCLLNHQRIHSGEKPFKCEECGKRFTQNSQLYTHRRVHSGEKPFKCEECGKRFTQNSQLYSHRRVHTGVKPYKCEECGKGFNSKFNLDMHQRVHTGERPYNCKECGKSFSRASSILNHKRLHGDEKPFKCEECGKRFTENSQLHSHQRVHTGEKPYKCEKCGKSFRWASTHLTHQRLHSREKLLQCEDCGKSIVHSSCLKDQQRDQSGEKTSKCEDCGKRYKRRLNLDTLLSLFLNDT
# UniProt Q15776: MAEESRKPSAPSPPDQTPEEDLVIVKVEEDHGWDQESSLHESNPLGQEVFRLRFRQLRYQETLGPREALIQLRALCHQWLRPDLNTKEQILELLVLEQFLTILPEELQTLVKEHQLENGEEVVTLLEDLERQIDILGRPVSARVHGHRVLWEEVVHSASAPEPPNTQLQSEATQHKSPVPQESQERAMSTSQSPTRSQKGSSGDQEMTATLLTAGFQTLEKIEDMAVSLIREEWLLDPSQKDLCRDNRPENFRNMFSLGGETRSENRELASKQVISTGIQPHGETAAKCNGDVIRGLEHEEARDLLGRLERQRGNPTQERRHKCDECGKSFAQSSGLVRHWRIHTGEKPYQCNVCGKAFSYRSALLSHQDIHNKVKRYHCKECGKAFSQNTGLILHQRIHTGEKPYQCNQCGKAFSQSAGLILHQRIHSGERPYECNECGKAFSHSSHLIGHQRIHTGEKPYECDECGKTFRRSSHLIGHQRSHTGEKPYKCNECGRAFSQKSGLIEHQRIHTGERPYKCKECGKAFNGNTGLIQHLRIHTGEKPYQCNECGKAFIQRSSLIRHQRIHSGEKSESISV
# UniProt Q969J2: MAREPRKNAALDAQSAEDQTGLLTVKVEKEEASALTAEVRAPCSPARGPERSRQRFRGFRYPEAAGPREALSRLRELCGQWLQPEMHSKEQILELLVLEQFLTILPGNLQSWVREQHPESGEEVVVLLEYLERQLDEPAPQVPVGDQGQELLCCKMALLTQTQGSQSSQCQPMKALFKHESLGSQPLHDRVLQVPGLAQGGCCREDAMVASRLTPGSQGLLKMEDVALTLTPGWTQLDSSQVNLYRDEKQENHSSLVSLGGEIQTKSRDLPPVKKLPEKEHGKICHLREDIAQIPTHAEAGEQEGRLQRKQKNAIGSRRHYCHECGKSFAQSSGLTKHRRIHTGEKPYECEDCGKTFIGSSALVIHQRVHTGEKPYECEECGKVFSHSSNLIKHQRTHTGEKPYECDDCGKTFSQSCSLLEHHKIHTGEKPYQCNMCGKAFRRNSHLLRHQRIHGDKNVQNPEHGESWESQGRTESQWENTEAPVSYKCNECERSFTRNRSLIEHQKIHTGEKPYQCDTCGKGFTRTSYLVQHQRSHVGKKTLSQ
# UniProt Q8IZC7: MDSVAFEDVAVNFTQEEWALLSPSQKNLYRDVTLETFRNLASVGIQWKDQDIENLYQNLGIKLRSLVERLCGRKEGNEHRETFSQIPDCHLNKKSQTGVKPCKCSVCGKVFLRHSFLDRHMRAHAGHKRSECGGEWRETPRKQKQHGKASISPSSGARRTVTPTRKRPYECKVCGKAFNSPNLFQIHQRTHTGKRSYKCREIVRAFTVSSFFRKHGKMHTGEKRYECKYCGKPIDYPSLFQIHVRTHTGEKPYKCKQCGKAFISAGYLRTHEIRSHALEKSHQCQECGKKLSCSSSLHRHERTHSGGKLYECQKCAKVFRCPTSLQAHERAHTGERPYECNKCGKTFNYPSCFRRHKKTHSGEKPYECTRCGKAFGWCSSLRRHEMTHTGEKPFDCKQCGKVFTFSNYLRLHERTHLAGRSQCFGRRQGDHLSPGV
# UniProt P17098: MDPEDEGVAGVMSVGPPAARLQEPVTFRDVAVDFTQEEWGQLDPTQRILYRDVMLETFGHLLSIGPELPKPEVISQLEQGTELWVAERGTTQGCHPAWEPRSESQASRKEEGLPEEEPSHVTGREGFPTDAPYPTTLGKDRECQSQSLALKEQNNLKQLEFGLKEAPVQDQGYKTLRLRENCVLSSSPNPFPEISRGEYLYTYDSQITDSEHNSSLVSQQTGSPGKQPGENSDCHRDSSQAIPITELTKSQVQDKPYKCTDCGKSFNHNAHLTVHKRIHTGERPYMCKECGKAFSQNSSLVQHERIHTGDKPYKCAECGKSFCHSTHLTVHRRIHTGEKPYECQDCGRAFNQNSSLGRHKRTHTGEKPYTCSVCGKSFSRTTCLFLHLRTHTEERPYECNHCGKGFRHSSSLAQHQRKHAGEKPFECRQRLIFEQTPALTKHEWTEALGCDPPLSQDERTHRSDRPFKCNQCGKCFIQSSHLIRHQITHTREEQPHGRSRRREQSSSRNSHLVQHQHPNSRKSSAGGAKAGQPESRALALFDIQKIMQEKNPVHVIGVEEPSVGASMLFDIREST
# UniProt Q8IYN0: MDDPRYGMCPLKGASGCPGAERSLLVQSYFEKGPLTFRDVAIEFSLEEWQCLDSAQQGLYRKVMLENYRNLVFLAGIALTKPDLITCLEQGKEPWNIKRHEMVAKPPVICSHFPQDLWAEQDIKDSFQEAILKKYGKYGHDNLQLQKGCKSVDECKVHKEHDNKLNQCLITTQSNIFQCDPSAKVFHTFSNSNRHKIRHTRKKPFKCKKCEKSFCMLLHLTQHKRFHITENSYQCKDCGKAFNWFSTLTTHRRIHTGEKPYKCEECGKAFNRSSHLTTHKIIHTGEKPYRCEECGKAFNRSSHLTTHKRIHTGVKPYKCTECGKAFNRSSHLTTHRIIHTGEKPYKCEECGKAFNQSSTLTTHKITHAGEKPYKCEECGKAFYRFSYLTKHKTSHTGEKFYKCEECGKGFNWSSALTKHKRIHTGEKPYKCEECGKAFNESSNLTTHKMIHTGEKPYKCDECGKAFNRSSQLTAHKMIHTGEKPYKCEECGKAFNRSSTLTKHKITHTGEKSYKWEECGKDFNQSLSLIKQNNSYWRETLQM
# UniProt Q9BS34: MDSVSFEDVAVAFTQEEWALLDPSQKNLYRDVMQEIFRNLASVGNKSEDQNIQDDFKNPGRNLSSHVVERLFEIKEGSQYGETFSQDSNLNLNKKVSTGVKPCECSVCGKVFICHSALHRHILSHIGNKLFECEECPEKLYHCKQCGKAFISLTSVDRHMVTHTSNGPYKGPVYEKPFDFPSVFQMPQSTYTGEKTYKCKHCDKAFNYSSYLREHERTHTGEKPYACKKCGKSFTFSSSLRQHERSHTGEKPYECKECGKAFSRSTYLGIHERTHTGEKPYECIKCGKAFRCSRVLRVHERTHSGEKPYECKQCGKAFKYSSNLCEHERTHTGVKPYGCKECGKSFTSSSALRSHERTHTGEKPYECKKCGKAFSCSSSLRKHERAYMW
# UniProt Q8N4W9: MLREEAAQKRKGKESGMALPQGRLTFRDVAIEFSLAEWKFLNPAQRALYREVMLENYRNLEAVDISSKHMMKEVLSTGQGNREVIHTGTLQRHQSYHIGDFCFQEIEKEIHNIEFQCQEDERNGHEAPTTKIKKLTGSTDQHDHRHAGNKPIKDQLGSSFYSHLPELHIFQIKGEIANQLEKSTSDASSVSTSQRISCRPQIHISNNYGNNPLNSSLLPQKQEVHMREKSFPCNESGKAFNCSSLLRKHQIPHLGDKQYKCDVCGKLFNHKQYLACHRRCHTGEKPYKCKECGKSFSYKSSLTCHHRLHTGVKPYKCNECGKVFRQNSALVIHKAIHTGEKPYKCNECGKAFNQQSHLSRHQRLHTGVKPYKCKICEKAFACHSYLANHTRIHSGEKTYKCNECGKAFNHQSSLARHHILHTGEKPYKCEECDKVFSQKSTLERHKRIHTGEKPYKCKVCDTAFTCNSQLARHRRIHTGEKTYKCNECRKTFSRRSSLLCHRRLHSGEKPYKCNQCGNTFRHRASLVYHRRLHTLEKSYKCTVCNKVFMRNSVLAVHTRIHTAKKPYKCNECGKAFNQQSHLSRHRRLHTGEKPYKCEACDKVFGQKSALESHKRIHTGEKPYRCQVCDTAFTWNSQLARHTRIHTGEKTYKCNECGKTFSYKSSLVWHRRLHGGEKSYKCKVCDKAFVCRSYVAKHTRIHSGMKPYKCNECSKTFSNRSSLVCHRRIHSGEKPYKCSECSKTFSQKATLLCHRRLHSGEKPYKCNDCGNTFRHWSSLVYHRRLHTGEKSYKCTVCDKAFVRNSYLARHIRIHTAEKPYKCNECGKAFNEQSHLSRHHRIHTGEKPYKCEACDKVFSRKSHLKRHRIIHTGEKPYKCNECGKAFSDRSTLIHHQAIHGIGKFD
# UniProt Q8TF50: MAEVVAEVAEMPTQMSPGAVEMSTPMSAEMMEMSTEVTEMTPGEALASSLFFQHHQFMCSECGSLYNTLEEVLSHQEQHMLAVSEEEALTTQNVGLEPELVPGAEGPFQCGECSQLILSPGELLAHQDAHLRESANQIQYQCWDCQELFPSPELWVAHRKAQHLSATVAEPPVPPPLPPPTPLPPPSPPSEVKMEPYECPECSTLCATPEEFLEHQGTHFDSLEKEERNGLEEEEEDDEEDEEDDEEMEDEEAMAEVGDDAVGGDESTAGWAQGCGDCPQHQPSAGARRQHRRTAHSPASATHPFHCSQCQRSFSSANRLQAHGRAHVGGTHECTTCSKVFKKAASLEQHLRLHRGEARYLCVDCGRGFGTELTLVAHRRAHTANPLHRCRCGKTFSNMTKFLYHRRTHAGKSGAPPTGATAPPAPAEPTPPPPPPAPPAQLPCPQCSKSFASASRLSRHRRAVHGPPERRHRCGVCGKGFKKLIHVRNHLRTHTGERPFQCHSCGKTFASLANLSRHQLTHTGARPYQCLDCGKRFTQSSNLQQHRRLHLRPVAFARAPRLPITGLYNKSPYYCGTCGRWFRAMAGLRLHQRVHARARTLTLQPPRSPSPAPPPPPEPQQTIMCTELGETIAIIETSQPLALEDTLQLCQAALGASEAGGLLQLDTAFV
# UniProt Q96AP4: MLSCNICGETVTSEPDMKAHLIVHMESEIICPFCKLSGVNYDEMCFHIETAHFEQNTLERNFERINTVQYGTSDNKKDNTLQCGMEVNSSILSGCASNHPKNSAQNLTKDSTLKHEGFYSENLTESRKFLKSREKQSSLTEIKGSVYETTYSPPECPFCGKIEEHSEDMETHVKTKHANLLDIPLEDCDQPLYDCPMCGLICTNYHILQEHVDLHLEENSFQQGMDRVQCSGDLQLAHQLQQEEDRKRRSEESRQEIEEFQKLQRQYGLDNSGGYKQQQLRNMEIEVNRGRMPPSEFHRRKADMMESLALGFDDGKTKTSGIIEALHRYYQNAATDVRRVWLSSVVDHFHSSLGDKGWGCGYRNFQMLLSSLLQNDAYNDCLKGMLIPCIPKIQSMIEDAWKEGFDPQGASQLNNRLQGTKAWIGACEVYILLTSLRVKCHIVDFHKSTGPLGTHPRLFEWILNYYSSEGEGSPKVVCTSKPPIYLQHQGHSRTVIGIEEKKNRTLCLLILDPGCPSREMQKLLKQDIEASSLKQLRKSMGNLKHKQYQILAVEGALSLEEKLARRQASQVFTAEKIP
# UniProt Q9UJ78: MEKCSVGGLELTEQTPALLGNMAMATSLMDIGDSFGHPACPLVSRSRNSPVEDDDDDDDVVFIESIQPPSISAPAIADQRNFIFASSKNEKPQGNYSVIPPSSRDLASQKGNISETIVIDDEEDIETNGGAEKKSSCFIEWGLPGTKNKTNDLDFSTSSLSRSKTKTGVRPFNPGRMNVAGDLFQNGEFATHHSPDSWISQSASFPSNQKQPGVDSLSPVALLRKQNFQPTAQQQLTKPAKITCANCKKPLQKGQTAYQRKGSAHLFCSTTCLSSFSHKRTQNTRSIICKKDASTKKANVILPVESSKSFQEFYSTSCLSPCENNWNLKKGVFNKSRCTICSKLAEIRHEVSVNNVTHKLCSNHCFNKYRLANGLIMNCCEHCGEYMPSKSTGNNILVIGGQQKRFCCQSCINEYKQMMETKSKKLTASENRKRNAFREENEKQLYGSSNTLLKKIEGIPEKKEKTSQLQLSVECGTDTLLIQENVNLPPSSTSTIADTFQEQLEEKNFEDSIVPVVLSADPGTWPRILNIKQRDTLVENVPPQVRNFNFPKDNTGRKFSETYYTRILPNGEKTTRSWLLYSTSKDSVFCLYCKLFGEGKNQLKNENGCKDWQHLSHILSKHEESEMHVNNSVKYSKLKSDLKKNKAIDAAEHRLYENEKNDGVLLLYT
# Some of the results follow.
# What was measured:
# Test in all cases: log2 fold change, soluble protein after heating vs DMSO (PISA); higher = thermal stabilisation; K562 lysate, 10 uM; active = over 0.2 and 3.5 SD of the protein, either way, in both replicates (recomputed)
# ibrutinib = compound: C=CC(=O)N1CCC[C@@H](n2nc(-c3ccc(Oc4ccccc4)cc3)c3c(N)ncnc32)C1 [ibrutinib]
# How it was run: (§1)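 To prepare the extract, K562 pellets were dounce-homogenised in PBS pH 7.4 with 1 mM MgCl2, giving crude material at 1 mg/mL protein. This was treated with 10 μM compound for 30 min, then heated in aliquots for 3 min over 48°C-58°C before pooling and addition of NP-40 to 0.5% at 4°C. Centrifugation at 21,000xg for 90 min left soluble protein in the supernatant, which TMTpro 16plex LC-MS/MS quantified with equalised channel sums. Results are log-two fold changes in thermal stability compared with solvent controls, from duplicates.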
# [1] = compound: CC(=O)c1cnc2ccc(-c3cc(Cl)c(O)c(Cl)c3)nc2c1N[C@H]1CC[C@H](CN(C)C)CC1
# How it was run: as §1
# ralimetinib = compound: CC(C)(C)Cn1c(N)nc2ccc(-c3[nH]c(C(C)(C)C)nc3-c3ccc(F)cc3)nc21 [ralimetinib]
# How it was run: as §1
# [2] = compound: CC(C)(O)CC(=O)NCCn1ccc2ncnc(Nc3ccc(Oc4cccc(C(F)(F)F)c4)c(Cl)c3)c21
# How it was run: as §1
# [3] = compound: CC(C)C1=C2N=C(C=C(N2N=C1)NCC3=CC=CC=C3)NCCCCCCN
# How it was run: as §1
# [4] = compound: CC1=C(C(CC(=O)N1)C2=CC=C(C=C2)C(F)(F)F)C(=O)NC3=C(C=C4C(=C3)C=NN4)F
# How it was run: as §1
# [5] = compound: CC1=C(C2=C(C=C1)C(=O)C3=CC=CC=C3N2CCCN)C
# How it was run: as §1
# [6] = compound: CC1=C(C=C(C=C1)NC(=O)C2=CC(=CC=C2)C(C)(C)C#N)NC3=CC4=C(C=C3)N=CN(C4=O)C
# How it was run: as §1
# [7] = compound: CC1=C(C=C(C=C1)NC(=O)C2=CC(=CC=C2)N(C)C)NC(=O)C3=CC=C(C=C3)O
# How it was run: as §1
# [8] = compound: CC1=CC=C(C=C1)SC2=C3C=C(SC3=CN=C2)C(=O)N
# How it was run: as §1
Target,log2 fold change (ibrutinib),log2 fold change [1],log2 fold change (ralimetinib),log2 fold change [2],log2 fold change [3],log2 fold change [4],log2 fold change [5],log2 fold change [6],log2 fold change [7],log2 fold change [8]
ZMYND8 isoform 19 (UniProt Q9ULU4),inactive: 0.111,inactive: -0.02,inactive: 0.047,inactive: 0.007,inactive: 0.002,inactive: 0.007,inactive: 0.027,inactive: 0.02,inactive: 0.011,inactive: 0.037
ZNFX1 (UniProt Q9P2E3),inactive: 0.027,inactive: -0.022,inactive: 0.01,inactive: -0.008,inactive: -0.073,inactive: -0.041,inactive: -0.068,inactive: -0.038,inactive: -0.094,inactive: 0.039
ZNF672 (UniProt Q499Z4),inactive: -0.068,inactive: -0.022,inactive: -0.016,inactive: 0.043,inactive: 0.112,inactive: -0.005,inactive: -0.131,inactive: -0.042,inactive: -0.036,inactive: 0.014
ZNF22 (UniProt P17026),inactive: -0.021,inactive: 0.108,inactive: 0.015,inactive: -0.046,inactive: 0.063,inactive: -0.041,inactive: -0.002,inactive: -0.037,inactive: 0.025,inactive: 0.033
ZNF579 (UniProt Q8NAF0),inactive: 0.084,inactive: -0.015,inactive: 0.045,inactive: -0.057,inactive: -0.01,inactive: 0.002,inactive: -0.06,inactive: 0.01,inactive: -0.049,inactive: -0.007
ZMIZ1 (UniProt Q9ULJ6),inactive: 0.04,inactive: -0.022,inactive: -0.007,inactive: -0.095,inactive: 0.012,inactive: -0.013,inactive: -0.026,inactive: -0.048,inactive: 0.016,inactive: -0.081
ZNF574 isoform 2 (UniProt Q6ZN55),inactive: 0.095,inactive: -0.061,inactive: -0.165,inactive: -0.103,inactive: -0.004,inactive: 0.071,–,inactive: -0.106,inactive: -0.07,inactive: 0.088
ZNF239 (UniProt Q16600),inactive: 0.04,–,inactive: -0.025,inactive: -0.044,inactive: -0.022,inactive: -0.017,–,inactive: -0.014,inactive: -0.017,–
ZSWIM8 isoform 4 (UniProt A7E2V4),inactive: -0.08,–,inactive: 0.101,inactive: -0.048,inactive: 0.002,inactive: -0.017,inactive: 0.28,inactive: -0.131,inactive: 0.105,–
ZNF385A (UniProt Q96PM9),inactive: -0.002,–,inactive: 0.05,inactive: -0.178,inactive: 0.068,inactive: 0.192,–,inactive: -0.124,inactive: 0.02,–
ZNF852 (UniProt Q6ZMS4),–,inactive: 0.124,–,–,inactive: -0.057,–,–,inactive: 0.035,–,inactive: -0.126
ZNF225 (UniProt Q9UK10),inactive: -0.122,–,inactive: -0.174,inactive: -0.356,inactive: 0.044,–,inactive: -0.502,–,inactive: -0.012,–
ZKSCAN8 (UniProt Q15776),–,active: 0.514,inactive: -0.021,inactive: -0.002,inactive: 0.229,inactive: 0.098,inactive: 0.008,inactive: -0.008,inactive: 0.04,inactive: -0.054
ZNF644 (UniProt Q9H582),inactive: 0.07,–,inactive: -0.023,inactive: 0.052,inactive: 0.038,inactive: -0.061,inactive: 0.042,inactive: -0.005,inactive: -0.02,–
ZNF512B (UniProt Q96KM6),–,inactive: 0.018,inactive: 0,inactive: -0.042,–,–,–,–,inactive: 0.048,inactive: -0.027
ZNF507 (UniProt Q8TCN5),inactive: 0.004,–,inactive: 0.021,inactive: -0.025,inactive: 0.005,inactive: 0.072,inactive: 0.019,inactive: -0.009,inactive: 0.022,–
ZNF93 (UniProt P35789),–,inactive: 0.081,inactive: 0.091,inactive: -0.048,inactive: -0.186,inactive: 0.099,inactive: -0.013,inactive: 0.025,inactive: 0.002,inactive: -0.053
ZNF800 (UniProt Q2TB10),–,inactive: 0,–,–,inactive: -0.175,–,inactive: -0.11,–,–,inactive: 0.147
ZNF445 (UniProt P59923),inactive: 0.076,–,inactive: -0.139,inactive: 0.078,inactive: 0.042,–,inactive: -0.018,–,inactive: 0.023,–

Target,log2 fold change (ibrutinib),log2 fold change [1],log2 fold change (ralimetinib),log2 fold change [2],log2 fold change [3],log2 fold change [4],log2 fold change [5],log2 fold change [6],log2 fold change [7],log2 fold change [8]
ZKSCAN4 (UniProt Q969J2),–,inactive: 0.13,inactive: -0.09,inactive: 0.027,inactive: -0.032,–,–,inactive: 0.12,inactive: 0.061,inactive: 0.082
ZNF668 isoform 2 (UniProt Q96K58),–,inactive: 0.034,–,–,inactive: -0.111,inactive: 0.051,–,inactive: -0.081,–,inactive: -0.048
ZNF324 (UniProt O75467),–,inactive: 0.022,inactive: -0.082,inactive: -0.035,–,inactive: 0.033,–,inactive: 0.105,inactive: 0.049,inactive: -0.037
ZNF525 (UniProt J3KR51),inactive: -0.069,–,–,–,inactive: -0.047,–,–,–,–,–
ZZZ3 (UniProt Q8IYH5),inactive: 0.257,–,inactive: 0.021,inactive: 0.019,inactive: 0.147,inactive: -0.107,inactive: -0.021,inactive: 0.001,inactive: 0.009,–
ZNF101 (UniProt Q8IZC7),–,inactive: 0.093,inactive: 0.103,inactive: 0.042,inactive: 0.116,–,inactive: -0.06,inactive: -0.139,inactive: -0.216,inactive: 0.05
ZNF618 (UniProt B1ALC2),–,inactive: -0.107,–,–,–,inactive: 0.008,inactive: -0.053,inactive: 0.027,–,inactive: -0.052
ZNF785 (UniProt A8K8V0),–,inactive: 0.239,–,–,–,–,inactive: 0.22,–,–,inactive: 0.083
ZNF148 (UniProt Q9UQR1),inactive: 0.127,–,inactive: 0.074,inactive: -0.111,inactive: -0.079,inactive: 0.037,inactive: 0.094,inactive: 0.148,inactive: 0.035,–
ZNF384 (UniProt Q8TF68),–,inactive: -0.124,inactive: -0.023,inactive: -0.046,inactive: 0.025,inactive: -0.037,inactive: -0.029,inactive: 0.002,inactive: 0.003,inactive: 0.08
ZNF280D (UniProt Q6N043),–,inactive: 0.026,inactive: -0.106,inactive: 0.577,–,–,–,–,inactive: -0.012,inactive: -0.171
ZNF687 (UniProt Q8N1G0),–,inactive: -0.058,inactive: 0.119,inactive: -0.007,inactive: -0.04,inactive: -0.088,inactive: -0.056,inactive: 0.037,inactive: 0.199,inactive: -0.002
ZNF8 (UniProt P17098),inactive: 0.234,–,inactive: 0.084,inactive: -0.054,inactive: 0,inactive: -0.053,inactive: -0.064,inactive: 0.004,inactive: 0.065,–
ZNF280A (UniProt P59817),–,–,inactive: 0.021,inactive: 0.143,inactive: 0.17,inactive: 0.023,inactive: 0.038,inactive: 0.234,inactive: -0.306,–
ZNF627 (UniProt Q7L945),inactive: 0.003,–,–,–,inactive: 0.33,–,–,inactive: -0.081,–,–
ZNF48 (UniProt Q96MX3),–,inactive: 0.013,–,–,–,–,–,–,–,inactive: 0.132
ZNF444 (UniProt Q8N0Y2),inactive: 0.355,–,inactive: -0.094,inactive: -0.031,–,–,inactive: 0.041,inactive: 0.117,inactive: -0.13,–
ZNHIT1 (UniProt O43257),inactive: -0.066,–,inactive: 0.013,inactive: -0.086,inactive: 0.018,inactive: 0.062,–,–,inactive: 0.004,–
ZNF358 (UniProt Q9NW07),–,inactive: 0.085,–,–,inactive: -0.007,–,–,–,–,inactive: -0.057

Target,log2 fold change (ibrutinib),log2 fold change [1],log2 fold change (ralimetinib),log2 fold change [2],log2 fold change [3],log2 fold change [4],log2 fold change [5],log2 fold change [6],log2 fold change [7],log2 fold change [8]
ZNF280B (UniProt Q86YH2),inactive: 0.027,–,–,–,inactive: 0.011,inactive: -0.083,–,inactive: 0.085,–,–
ZNF771 (UniProt Q7L3S4),inactive: 0.096,inactive: -0.056,–,–,inactive: -0.051,–,–,–,–,inactive: -0.037
ZNF100 (UniProt Q8IYN0),inactive: 0.155,–,–,–,–,–,–,inactive: 0.008,–,–
ZNF561-AS1 (UniProt K7EIQ3),inactive: -0.051,–,inactive: 0.09,inactive: 0.239,inactive: -0.076,–,–,–,inactive: -0.234,–
ZNF485 (UniProt Q8NCK3),–,–,inactive: -0.145,inactive: -0.044,–,–,–,–,inactive: 0.158,–
ZNRD1 (UniProt Q9P1U0),–,–,–,–,inactive: 0.087,inactive: -0.005,–,–,–,–
ZNF670 (UniProt Q9BS34),–,–,–,–,inactive: -0.01,inactive: 0.006,–,–,–,–
ZNF16 (UniProt P17020),–,–,–,–,–,–,–,inactive: 0.072,–,–
ZNF646 (UniProt O15015),–,–,inactive: -0.106,inactive: -0.322,–,–,–,inactive: 0.083,inactive: -0.057,–
ZNF808 (UniProt Q8N4W9),–,–,inactive: -0.163,inactive: -0.356,–,–,inactive: -0.097,inactive: 0.409,inactive: -0.149,–
ZNF655 isoform 3 (UniProt Q8N720),–,–,–,–,–,–,–,inactive: 0.07,–,–
ZNF813 (UniProt Q6ZN06),–,–,–,–,–,inactive: -0.03,inactive: 0,–,–,–
ZNF816 (UniProt Q0VGE8),–,–,inactive: -0.059,inactive: -0.017,–,inactive: -0.035,–,inactive: -0.164,inactive: -0.021,–
ZNF526 (UniProt Q8TF50),–,–,inactive: 0.035,inactive: 0.077,inactive: -0.21,inactive: 0.018,inactive: -0.015,–,inactive: 0.282,–
ZSWIM7 (UniProt Q19AV6),–,–,inactive: 0.135,inactive: -0.052,inactive: 0.036,–,inactive: -0.036,–,inactive: -0.033,–
ZNF410 isoform 5 (UniProt Q86VK4),–,–,–,–,–,–,–,inactive: -0.216,–,–
ZUP1 (UniProt Q96AP4),–,–,–,–,–,–,inactive: 0.052,–,–,–
ZMYM5 (UniProt Q9UJ78),–,–,–,–,inactive: -0.073,–,–,–,–,–
ZNF76 (UniProt P36508),–,–,–,–,inactive: -0.072,–,–,inactive: 0.045,–,–

# Part of the list above, with bars between the fields:
Target | log2 fold change (ibrutinib) | log2 fold change [1] | log2 fold change (ralimetinib) | log2 fold change [2] | log2 fold change [3] | log2 fold change [4] | log2 fold change [5] | log2 fold change [6] | log2 fold change [7] | log2 fold change [8]
ZNF22 (UniProt P17026) | inactive: -0.021 | inactive: 0.108 | inactive: 0.015 | inactive: -0.046 | inactive: 0.063 | inactive: -0.041 | inactive: -0.002 | inactive: -0.037 | inactive: 0.025 | inactive: 0.033
ZNF574 isoform 2 (UniProt Q6ZN55) | inactive: 0.095 | inactive: -0.061 | inactive: -0.165 | inactive: -0.103 | inactive: -0.004 | inactive: 0.071 | – | inactive: -0.106 | inactive: -0.07 | inactive: 0.088
ZSWIM8 isoform 4 (UniProt A7E2V4) | inactive: -0.08 | – | inactive: 0.101 | inactive: -0.048 | inactive: 0.002 | inactive: -0.017 | inactive: 0.28 | inactive: -0.131 | inactive: 0.105 | –
ZNF225 (UniProt Q9UK10) | inactive: -0.122 | – | inactive: -0.174 | inactive: -0.356 | inactive: 0.044 | – | inactive: -0.502 | – | inactive: -0.012 | –
ZNF507 (UniProt Q8TCN5) | inactive: 0.004 | – | inactive: 0.021 | inactive: -0.025 | inactive: 0.005 | inactive: 0.072 | inactive: 0.019 | inactive: -0.009 | inactive: 0.022 | –
ZNF800 (UniProt Q2TB10) | – | inactive: 0 | – | – | inactive: -0.175 | – | inactive: -0.11 | – | – | inactive: 0.147
ZNF324 (UniProt O75467) | – | inactive: 0.022 | inactive: -0.082 | inactive: -0.035 | – | inactive: 0.033 | – | inactive: 0.105 | inactive: 0.049 | inactive: -0.037
ZNF670 (UniProt Q9BS34) | – | – | – | – | inactive: -0.01 | inactive: 0.006 | – | – | – | –
ZNF16 (UniProt P17020) | – | – | – | – | – | – | – | inactive: 0.072 | – | –
ZNF655 isoform 3 (UniProt Q8N720) | – | – | – | – | – | – | – | inactive: 0.07 | – | –
ZNF816 (UniProt Q0VGE8) | – | – | inactive: -0.059 | inactive: -0.017 | – | inactive: -0.035 | – | inactive: -0.164 | inactive: -0.021 | –
ZNF526 (UniProt Q8TF50) | – | – | inactive: 0.035 | inactive: 0.077 | inactive: -0.21 | inactive: 0.018 | inactive: -0.015 | – | inactive: 0.282 | –
